# Assay results: article PMC7255803
# Target: MUT-16::GFP::3xFLAG (C. elegans)
# Assay: affinity purification with mass spectrometry; separate immunoprecipitations with anti-GFP (RQ2) and anti-FLAG (M2) affinity matrix from lysate of ~500,000 adult worms with MUT-16::GFP::3xFLAG; N2 wild type as control; IP buffer 50 mM Tris-Cl pH 7.4, 100 mM KCl, 2.5 mM MgCl2, 0.1% Igapal CA-630; 4°C, 2 hr, washed 10 times
row,Binder,binding
1,"SIMR-1 (siRNA-defective and mortal germline) (protein, UniProt O01477 1-691) MSNEKQQWDDAYCLAEEMHDAGRPFKREELNIADQFICSRFSTIFEYDPYKDTYGFRNQELTHAIPVKSKCRHISDVDILELKKNTANADIRFPSYLNICPVYAMHPFTVLAFDLSKPVPMGMNASMENAAPNMKSPTEAEITPGTIYIFKHRDNKCYRCVILFEDGDNNVSDADRKYMVAFLDTPQVVSVKLKTLFHLGKFTIESYPCALYCCRAVGILEIRKDFGADLNGQINEFYKDKVKRKSGVHALIYKKDDRGDKLIFDCPSILGTSMTMALEIKDVIGHRSVAENDPTALSYDELVSKQLPTVDIDDHNSSVVLDLEESVIAQELGSTNGADCPCNNDNIDDFMQSQRQNPLDNNRDNWDRINESRSSMQSFAINQSQAITANPTPQPTFDESSGEVQTIPESINNLALNGRYLEDGRGTEEIREERSVESRQIGNQVVSQASCNYLEARQNSTQTANAESVCAIISESHAALPTDIQVIPSQHVLNENNHTVLPSVAPIIRNATGHSHIFGRQIPSPAFRRESLSSGNSIQVATFAATTGPCGSNTSRPTAQNTANSSINQDMSISNSSTNARLITIAQDNLNDTENWPNSEREQSATEMESGAEATTNSAVDEFAQVSDDMKGLADSMINFLRLTANSNNQDAFKANIFAMELISTKIPNQLTKRFFTLKIAEAKSLAEGFN",binds
2,"MATH-33 (protein, UniProt Q7JKC3 1-1135) MQCSPDPEDLLIVPTHDIPSYDESLDPFGPEGHLSLDIDCFSKFMSRSDNRIMSKPIIVRGIPWRILAICRNQQGSRHSMNSRVNRSNFNFGFFLQCNNDELLQKRGMWRCYGTAVLEVLNADGPSIQKKIHHSFHNTEVDWGFSNYDQYDTLCNPKDGYVVNDTIKLRCRFTADVPTGANYMWDSKRHTGCIGLRNQGATCYMNSILQSFYFTTGFRRAVYNMDVGTEPNESNIVLAMQRVFYELQMASEAVETNSLTRAFGWDKLDAFNQHDVQEFCRVLLDNLETKMKGTSEEKSIPNLFRGNMKSYIKCLDVDYESSRTESFYDVQLNVLGMDSLERAFEAYTTSEILDDENKYDAGDHGLQRAEKGVKFVELPPILHVQLMRFQYCGVEQKINERFSFPEKMNLASCCELGPMLTEEDCVYSLHAVLVHSGEFHGGHYVTYINVNLHESAVDPTSSAKWCKFDDDVVSRTTTDDAIVSNFGGEKTMNSSAYMLVYVRDNAIDQFLAPIPDSQIPQSVSRTFEMERLHRNREKKKLEEEQLCMGIVLVTPDIVASNHSFDLVDQSIVHDSIPHETVWKHMFTAELYQFVHDRLFEKSAMQKIDMFDSDDEARQARRDNLRRIKSKKFNFRLWRMTDSYSLERTTQKLTSRLRPSEFIDCKTDTRLDTLLSQDFETIYVEFSNNIERPLCEYDTARDLLFFVKYYDTMTDKFTIIGHTMFDCHKRFNLYRSMLCEMIGLPADTELKYYMEHAASYLELVDLTQNYSIGRLVEEQDGGILVVEKVETSTSTQNAKQKMNELFLDVEVEFVQSFYNKKPEEEPFEQFVKRICLDDKLFTVAEEIGARLNVDPKKVLIWTRVSGSRFEPFFDDYMLNTCKGLMTRPVHDPRAYKRYRVQYAIMPFDIDEISKHRIQTKLFWQLPNGHVEELTLFPLKEGTVIDIINEAKRYYPFVEGGSGKFRLLQIGAPPLSNQRVYQIYGENTLISDLDQRTMYKLVSSQALHCRLEEVPIDELDMSPGEFLCPVVHFDREPTKLFGLSFVIKIRNNELMTEVRDRLRRKLNDVSDADFAKYKFALLSRDKLQLCRTIEFNNGEKVNLADMANQTTGVPQVYIGLDHKSPIQHSSEAAIRILN",binds
3,"HGO-1 (protein, UniProt Q9Y041 1-437) MSEFDELKYLTGFGNEHATSDPRVPDALPVGQNSPQKCSHGLYAEQLSGTAFTAPRSQNQRSWLYRIRPSVIHRPFEAMKENDQHWTNNFSSIPPNPNQYRWNPFPLPTKEGVTFVDNLYTVCGGGDVISRTGLAIHQFSCNASMEHTAMYNSDGDFLIVPQQGALEITTEFGRLLVNPQEIAVIPQGIRFSVAVRGPSRGYILEVYGTHFQLPDLGPIGANGLANPRDFEAPVAWFEDLDVEFTIINKYQGSWFQAKQGHSPFDVVGWHGNYVPYKYDLKKFMVINTVSFDHCDPSIFTVLTAPSVKHGTAIADFVIFPPRWGCADNTFRPPYYHRNCMSEYMGLITGCYEAKEGGFKPGGGSLHSMMTPHGPDFNCFEMASNADLKPQRVAEGTMSFMFESSLNMAITNWAVYQNVDKDYYKDWQPLKKHFTMPK",binds

# Results are given in words; binding and its absence hold for the method and conditions named. Binding seen in cells or lysates may run through a third protein. These calls come from enrichment with a bait or labelling near it, and not all partners need be listed.
